Source: US7632918B2, “Semi-synthetic glycopeptides with antibiotic activity” (Novartis Vaccines and Diagnostics, Inc., priority 2005, dated 2009)
In brackets after ≈: the same amount, converted by molar mass.

Experiments:
Experiment in all cases: MIC, broth microdilution in Meuller-Hinton broth (NCCLS)
533 S. epidermidis = assay type: cell-based, Staphylococus epidermidis; conditions: clinical isolate
Protocol: (§1) Antibacterial activity in vitro was investigated by broth microdilution method in Meuller-Hinton broth as recommended by NCCLS. All strains tested were clinical isolates either sensitive or resistant to natural glycopeptides. Results are reported in the tables as MIC (minimal inhibitory concentration) in μg/ml.
(§2) The glycopeptides were tested against a variety of strains, indicated below, including Staphylococus epidermidis, Staphylococus haemolyticus, glycopeptides-intermediate Staphylococus aureus (GISA), glocopeptide-sensitive Enterococcus faecalis (GSE), and glocopeptide-resistant Enterococcus faecalis (GRE). Results are shown in the table as minimum inhibitory concentration (MIC) in units of μg/ml: […]

602 S. haemolyticus = assay type: cell-based, Staphylococus haemolyticus; conditions: clinical isolate
Protocol: as §1, §2

3797 S. aureus (GISA) = assay type: cell-based, Staphylococus aureus; conditions: glycopeptides-intermediate clinical isolate
Protocol: as §1, §2

3798 S. aureus (GISA) = assay type: cell-based, Staphylococus aureus; conditions: glycopeptides-intermediate clinical isolate
Protocol: as §1, §2

568 E. faecium (GSE) = assay type: cell-based; conditions: glycopeptide-sensitive clinical isolate
Protocol: as §1, §2

569 E. faecium (GRE) = assay type: cell-based; conditions: glycopeptide-resistant clinical isolate
Protocol: as §1, §2

559 E. faecalis (GSE) = assay type: cell-based, Enterococcus faecalis; conditions: glycopeptide-sensitive clinical isolate
Protocol: as §1, §2

560 E. faecalis (GRE) = assay type: cell-based, Enterococcus faecalis; conditions: glycopeptide-resistant clinical isolate
Protocol: as §1, §2

Question: How did the “MIC 533 S. epidermidis” value (533 S. epidermidis) turn out when `CCCCCCCCOc1ccc(CNCC(=O)NC2(C)CC(OC3C(Oc4c5cc6cc4Oc4ccc(cc4Cl)C(O)C4NC(=O)C(NC(=O)C6NC(=O)C(CC(N)=O)NC(=O)C(NC(=O)C(CC(C)C)NC)C(O)c6ccc(c(Cl)c6)O5)c5ccc(O)c(c5)-c5c(O)cc(O)cc5C(C(=O)O)NC4=O)OC(CO)C(O)C3O)OC(C)C2O)cc1` (centres unmarked) [Compound 220, N′-p-C8H17OBnHNCH2CO vancomycin] was run?
Answer: 0.5 µg/mL (≈ 0.29 µM)

Question: What about the “MIC 602 S. haemolyticus” value (602 S. haemolyticus) of the same molecule?
Answer: 1 µg/mL (≈ 0.58 µM)

Question: What about the “MIC 3797 S. aureus (GISA)” value (3797 S. aureus (GISA)) of the same molecule?
Answer: 2 µg/mL (≈ 1.16 µM)

Question: What about the “MIC 3798 S. aureus (GISA)” value (3798 S. aureus (GISA)) of the same molecule?
Answer: 2 µg/mL (≈ 1.16 µM)

Question: And the “MIC 568 E. faecium (GSE)” value (568 E. faecium (GSE))?
Answer: 0.25 µg/mL (≈ 0.145 µM)

Question: And the “MIC 569 E. faecium (GRE)” value (569 E. faecium (GRE))?
Answer: 2 µg/mL (≈ 1.16 µM)

Question: What about the “MIC 559 E. faecalis (GSE)” value (559 E. faecalis (GSE)) of the same molecule?
Answer: 0.25 µg/mL (≈ 0.145 µM)

Question: And the “MIC 560 E. faecalis (GRE)” value (560 E. faecalis (GRE))?
Answer: 4 µg/mL (≈ 2.32 µM)
